Library screening results

Chains of the proteins cited; added tags and fusions are not shown.
UniProt E9BF75, entry or part of it: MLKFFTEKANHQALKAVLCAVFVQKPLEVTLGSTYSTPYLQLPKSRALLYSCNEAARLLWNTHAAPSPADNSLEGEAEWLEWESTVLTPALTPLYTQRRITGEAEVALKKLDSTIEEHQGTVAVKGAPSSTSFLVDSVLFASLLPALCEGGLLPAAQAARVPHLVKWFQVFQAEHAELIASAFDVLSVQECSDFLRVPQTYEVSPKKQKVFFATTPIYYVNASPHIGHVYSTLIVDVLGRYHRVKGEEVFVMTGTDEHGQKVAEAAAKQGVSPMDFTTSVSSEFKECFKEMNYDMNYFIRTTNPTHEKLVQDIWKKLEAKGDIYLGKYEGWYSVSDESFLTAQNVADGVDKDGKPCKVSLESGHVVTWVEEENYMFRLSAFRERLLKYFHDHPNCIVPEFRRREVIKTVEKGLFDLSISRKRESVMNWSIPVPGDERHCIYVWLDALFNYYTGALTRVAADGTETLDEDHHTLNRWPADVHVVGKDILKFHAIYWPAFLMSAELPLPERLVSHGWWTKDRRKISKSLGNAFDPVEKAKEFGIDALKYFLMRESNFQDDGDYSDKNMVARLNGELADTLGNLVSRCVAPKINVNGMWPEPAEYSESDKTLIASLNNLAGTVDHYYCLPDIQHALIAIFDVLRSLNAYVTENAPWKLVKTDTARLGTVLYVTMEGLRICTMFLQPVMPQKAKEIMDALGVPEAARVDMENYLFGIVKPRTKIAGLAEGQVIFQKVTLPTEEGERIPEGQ

The values are deposited in ChEMBL (CHEMBL3988442, “University of Dundee, Small-Polar-MMV Screening Library” (2021)).

A: 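Primary screen of methionyl-tRNA synthetase; the read-out is not stated. Target: Methionyl-tRNA synthetase (putative), Leishmania donovani (UniProt E9BF75). The test concentration is not given. Values are per cent inhibition. About 68,000 compounds were tested under these conditions; 0.035% (about 24) showed 50% or more at least once.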
B: 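Assay on Mycobacterium tuberculosis, filed only as a heat shock assay from Cornell; the read-out is not stated. The concentration is filed as 10 mM, unlikely as a test dose, so the dose is not known. Direction is inferred from retests: higher values go with stronger inhibition. Size under these conditions: about 69,000 compounds, about 930 of them at 50% or above in at least one test.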

All values are in %.
The record does not define 0% and 100%; most values in the screen are far below 50% and negative numbers occur (in some assays of this library far below -100).
This is an unselected part of the compounds tested.
A dash means the value is not listed here; it may have been measured.

compound | A | B
CCOCCC(=O)N(C)c1ccc(F)c(Cl)c1 | 8.871 | -16.58
CC(=O)Cn1c(C)cc(=O)c2cc(F)ccc21 | 9.804 | -6.327
[H][C@]12CC[C@]([H])(CN(S(=O)(=O)c3cccc(Cl)c3)C1)N(CCC)C2=O | - | -8.28
Cc1ccc(C)c(CN2CCCn3nc(CNS(C)(=O)=O)cc3C2)c1 | 3.297 | -7.756
O=C(O)C(F)(F)F.O=C(O)C(F)(F)F.[H][C@@]12CCCO[C@]1([H])[C@H](N(C)Cc1cccnc1)CN2C(=O)CC1CC1 | - | -21.3
CCC(C)N1C(=O)c2ccc(C(=O)NCCc3c[nH]cn3)cc2C1=O (stereo unspecified) | 5.46 | 4.15
CS(=O)(=O)NC[C@]1(O)CCN(C(=O)Cc2cccs2)C[C@H]1O | 10.93 | -22.46
Cc1cc(C(=O)NCc2csc(N(C)C)n2)c2ccc(C)c(C)c2n1 | 13.33 | 32.06
Cc1cccc(N2CC3(COCCN(c4ccncn4)C3)OCC2=O)c1 (stereo unspecified) | 6.723 | -4.241
Cc1ccc(NC(=O)c2n[nH]c(-n3cnnc3)n2)cc1 | 27.39 | 2.635
CN(C)C(=O)COC1COC2(CCN(CC3CC3)CC2)C1 (stereo unspecified) | 20.17 | -
COCc1ccc(C(=O)N2CCC(c3nccn3CC3CC3)CC2)o1 | 14.72 | -18.05
Cc1ccc(Oc2ncccc2C(=O)O)c(C)c1 | 13.06 | 23.55
CCC(Nc1nc(C(C)C)nc2c1cnn2C)c1ccncc1 (stereo unspecified) | -0.2564 | -4.29
CS(=O)(=O)N1CCc2ccc(C(=O)N3CCn4ncnc4C3)cc21 | 18.55 | 0.8338
COc1ccccc1OCCNC(=O)NCC(C)C | 15.46 | 9.889
[H][C@@]12COC[C@]1([H])[C@@H](OCc1cccnc1)CN2C(=O)c1ccc(C#N)cc1 | - | -31.02
COc1ccc(CN2C[C@@H](OCc3ccccn3)[C@H]3COC[C@H]32)cc1 | 13.8 | -
CNC(=O)C1(N(C)CCc2ccccc2)Cc2ccccc2C1 | 4.795 | -14.64
Cc1n[nH]c(C2CN(C(=O)c3cc4c(s3)CCCC4)CCO2)n1 (stereo unspecified) | 17.18 | 7.965
O=C(NCCNc1cnccn1)C1CCN(C(=O)N2CCCC2)CC1 | 12.5 | -11.99
N#Cc1cccc(C(=O)N2CC[C@H]3[C@H]2CCN3CC2CC2)c1 | -3.922 | -
CN(CC(=O)NS(=O)(=O)c1ccc(F)cc1)Cc1ccccc1 | 11.68 | -5.134
CS(=O)(=O)N1C[C@@H]2CC[C@H](C1)N(C(=O)Cn1ccc3ccccc31)C2 | 12.03 | -
COCC(=O)N1C[C@@H](c2cc(O)nc(C)n2)[C@H](c2ccccc2F)C1 | 0.9375 | -28.54
CCOc1cccc(C(=O)N2CCN(c3nccc(OC)n3)CC2)c1 | 6.299 | -15.97
O=C(O)C(F)(F)F.O=C(O)C(F)(F)F.O=C(O)C(F)(F)F.[H][C@@]12CO[C@@H](CN3CCN(C)CC3)[C@]1([H])CCN(Cc1cccc(F)c1)C2 | - | 1.572
Cc1cncc(C(=O)NCCSCc2cccs2)c1 | 8.571 | 16.63
COC(=O)[C@H](CC(C)C)NC(=O)c1snnc1-c1ccc(OC)cc1 | -7.094 | 14.18
CC(C)c1noc(C2CCN(C(=O)c3cccs3)CC2)n1 | 10.67 | -6.554
CCc1nnc2n1CCN(CCS(=O)(=O)c1ccccc1)C2 | 13.36 | 12.91
CC(=O)N1CCCC1c1cccc(NCc2ccccc2F)n1 (stereo unspecified) | 12.5 | -1.358
O=C(O)c1ccc(S(=O)(=O)Nc2ccc(Cl)c(F)c2)c(F)c1 | 9.804 | -8.712
CCC1=N[C@@]2(CC[C@@H]3CN(C(=O)Nc4ccccc4)C[C@@H]32)C(=O)N1C | 13.77 | -
NC(=O)C1CN(C(=O)Nc2cc(Cl)cc(Cl)c2)CCO1 (stereo unspecified) | 17.5 | 12.09
CC1CCCCN1S(=O)(=O)NCc1cccnc1OC1CCCC1 (stereo unspecified) | 13.06 | 2.387
CN1C(=O)CO[C@H](c2ccc(NC(=O)Cc3cccs3)cc2)[C@H]1CO | 9.831 | -2.395
Cc1noc([C@H]2C[C@H]3OCC[C@H]3N(Cc3ccc4c(c3)OCO4)C2)n1 | 11.78 | -
CSCC(CCO)NC(=O)Nc1cccc(Br)c1C (stereo unspecified) | 13.31 | -0.1393
Cn1ccnc1CN1CCN(CC(O)c2ccc(F)cc2)CC1 (stereo unspecified) | 22.65 | -5.383
Cc1nc(N2CCCC2)nc2c1CCN(C(=O)c1ccoc1C)CC2 | 12.32 | 6.567
Fc1ccc(N2CCCN(c3ccc(Cn4ccnc4)cn3)CC2)cc1 | 14.6 | 107.2
CCC1CN(c2ncnc3nc[nH]c23)CCO1 (stereo unspecified) | 19.83 | -30.95
CN1CCc2cc(C(=O)N(C)C)c(NCC3CC3)nc2CC1 | 19.29 | -
Cn1ccnc1CN1CCC2(CC1)CC(Oc1cccnc1)C2 | 19.67 | -
CC[C@H](C)[C@@H](CO)NC(C)Cc1ccc(Cl)cc1 (stereo partly specified) | 12.77 | -5.725
Clc1ccc(-c2nc(CN3CCCC3Cn3cncn3)co2)cc1 (stereo unspecified) | 15.06 | -7.706
COc1ccc(F)cc1Cn1nc(C(N)=O)ccc1=O | 1.95 | -37.67
Cc1nccn1C1CCCN(C(=O)c2cccc(-n3cccc3)c2)C1 (stereo unspecified) | 15.91 | -11.21
O=C(O)C(F)(F)F.O=C(O)C(F)(F)F.[H][C@@]12CCN(Cc3cccnc3)[C@]1([H])CC[C@H](COCC1CCOCC1)O2 | - | -5.632
Cn1ncc2c(N[C@H]3CC[C@@H](N)CC3)nc(C(C)(C)C)nc21 | 24.63 | 7.873
CC(=O)N(C)CC(=O)NCC1(c2cccc(C)c2)CCCC1 | 12.1 | -1.513
Cc1nn(C)c(Cl)c1C1CCCN1C(=O)CCNc1ncccn1 (stereo unspecified) | 21.59 | 0.4807
CCOCC1CN(Cc2ccoc2)Cc2nn(CC3CC3)cc21.O=C(O)C(F)(F)F (stereo unspecified) | - | 1.09
Cc1cnc(C)c(N2CCCC(CO)(Cc3cccc(Cl)c3)C2)n1 (stereo unspecified) | 9.537 | -29.61
COCCN(C)C[C@@H]1CN(Cc2ccnc3ccccc23)C[C@@H]1CO | 21.05 | -9.306
Cc1ccsc1C(=O)NCc1ccnc(N2CCN(C)CC2)c1 | 14.21 | 23.59
CC(=O)NCCSCCOc1cccc(Br)c1 | 3.472 | 11.89
COc1ccccc1Nc1nc2c(C)nn(C)c2c(=O)n1C | 4.218 | -14.88
CCNC(=O)Cc1ccc(NC(=O)NC(CC)c2ccncc2)cc1 (stereo unspecified) | 13.04 | -2.186
CCCS(=O)(=O)N1C[C@@H]2CN(Cc3ccoc3)CCO[C@@H]2C1 | 8.219 | -
CCCC(C#N)NC(=O)CCCOc1cccc(C(C)=O)c1 (stereo unspecified) | 2.518 | -22.23
Cc1c[nH]c(C(=O)N2CCn3nc(C(=O)NC4CC4)cc3C2)n1 | 10 | -2.029
O=C(CN1CCC(c2cc(=O)n3c(n2)CCCCC3)CC1)N1CCCC1 | 9.003 | 1.968
C[C@@H]1CN(c2nc(O)cc(Cc3ccccc3F)n2)C[C@H](C)O1 | 8.228 | 4.735

The first 7 entries again:

compound	A	B
CCOCCC(=O)N(C)c1ccc(F)c(Cl)c1	8.871	-16.58
CC(=O)Cn1c(C)cc(=O)c2cc(F)ccc21	9.804	-6.327
[H][C@]12CC[C@]([H])(CN(S(=O)(=O)c3cccc(Cl)c3)C1)N(CCC)C2=O	-	-8.28
Cc1ccc(C)c(CN2CCCn3nc(CNS(C)(=O)=O)cc3C2)c1	3.297	-7.756
O=C(O)C(F)(F)F.O=C(O)C(F)(F)F.[H][C@@]12CCCO[C@]1([H])[C@H](N(C)Cc1cccnc1)CN2C(=O)CC1CC1	-	-21.3
CCC(C)N1C(=O)c2ccc(C(=O)NCCc3c[nH]cn3)cc2C1=O (stereo unspecified)	5.46	4.15
CS(=O)(=O)NC[C@]1(O)CCN(C(=O)Cc2cccs2)C[C@H]1O	10.93	-22.46